Our source for the binding values is article PMC5902629.

These are yes or no findings as the source states them, for the method shown. Binding seen in cells or lysates may run through a third protein. These calls come from enrichment with a bait or labelling near it, and not all partners need be listed. Tags and fused reporters may be left off the sequences shown.

The target of this test is T1, eGFP-HadA (HadA subunit of the FAS-II (3R)-hydroxyacyl-ACP dehydratase HadAB, Rv0635) (M. tuberculosis H37Rv) (UniProt P9WFK1).
T1 sequence: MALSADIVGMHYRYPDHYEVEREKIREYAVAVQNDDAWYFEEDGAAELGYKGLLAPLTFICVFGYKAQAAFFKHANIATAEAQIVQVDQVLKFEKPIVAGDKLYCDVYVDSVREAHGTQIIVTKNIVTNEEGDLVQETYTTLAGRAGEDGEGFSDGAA
As to the kind of experiment: affinity purification with mass spectrometry.

B1: HadB (catalytic subunit of the FAS-II dehydratases HadAB and HadBC, Rv0636) (protein, UniProt I6WYY7 1-142)
chain: MALREFSSVKVGDQLPEKTYPLTRQDLVNYAGVSGDLNPIHWDDEIAKVVGLDTAIAHGMLTMGIGGGYVTSWVGDPGAVTEYNVRFTAVVPVPNDGKGAELVFNGRVKSVDPESKSVTIALTATTGGKKIFGRAIASAKLA
For the molecule B1, the binding entry is recorded as “binds”.

B2: HadD (MSMEG_0948 protein) (protein, UniProt A0QR13 1-177)
chain: MSIAANIIGTHYRYPDYFEVGREKVREFSAAVKDDHPAHFDEAAAKECGHDNLIAPLTFLAVAGRRVQLDLFDKFDVPINLERVLHRDQKLIFHRPIVVGDKLWFDSYLDSVIESHGTVICEIRAEVTDDDGKPVATSIVTMLGEAEIDEADEISSQIAAARDAAIAKMVAGQKSSS
As to B2, the binding entry was “binds”.
